Each structure is given as a SMILES string. Some of the results follow. Repeats in this data set agree poorly, so a single value says little.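 Flies heterozygous for the ATM8 allele over a balancer chromosome carrying normal ATM were mated with each other on treated food. Parents laid eggs for 5–6 days and the young then developed for about 12 days, so both parents and larvae ate the compound. The read-out is the share of all emerged adults that carry two ATM8 copies, compared with 2% DMSO control vials. The paper called compounds neutral at 10–20% such offspring, harmful below 10%, and helpful above 20%.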

For this test, the system named is Drosophila melanogaster ATM8 (temperature-sensitive ATM allele). As to the kind of experiment: fraction of eclosed F1 progeny that are homozygous ATM8 (rescue of developmental lethality); higher = more rescue of ATM8 developmental lethality; extreme values may be limits of the assay. The settings on record: compound concentration applied to food 0.2 mM; 21 °C.
As for `CC(C)=CCCC1(C)C=Cc2c(O)c3c(c(CC=C(C)C)c2O1)OC12C(=CC4CC1C(C)(C)OC2(C/C=C(/C)C(=O)O)C4O)C3=O` (stereo unspecified), the “fraction of eclosed F1 progeny that are homozygous ATM8” value (from here on “fraction”) was determined as 0.146.
Regarding `S=C=Nc1ccc(N=C=S)cc1`, the “fraction” value came to 0.136.
Then `C/C=C(/C)C(=O)O[C@H]1CC[C@@]2(C)[C@@H]3CC[C@H]4[C@]5(O)C[C@H](O)[C@@]6(O)[C@@H](CN7C[C@@H](C)CC[C@H]7[C@@]6(C)O)[C@]5(O)C[C@]42O[C@]13O`, with 0.0571.
The figure for `C#C[C@]1(O)CC[C@H]2[C@@H]3[C@H](C)CC4=C(CCC(=O)C4)[C@H]3CC[C@@]21C` is 0.0328.
The figure for `COc1cc(C(=O)N2CCOCC2)cc(OC)c1OC` is 0.235; for `CC(=O)OCC(=O)[C@@]1(O)CC[C@H]2[C@@H]3CCC4=CC(=O)CC[C@]4(C)[C@H]3C(=O)C[C@@]21C` it is 0.103.
Take `CCCCC(=O)O[C@]1(C(=O)CO)[C@@H](C)C[C@H]2[C@@H]3CCC4=CC(=O)C=C[C@]4(C)[C@@]3(F)[C@@H](O)C[C@@]21C`: the “fraction” value was determined as 0.
For the compound `CO[C@]12C[C@@H](COC(=O)c3cncc(Br)c3)CN(C)[C@@H]1Cc1cn(C)c3cccc2c13`, the “fraction” value came to 0.0698.
On to `COc1cc(O)c(C(C)=O)c(OC)c1`, for which the “fraction” value is 0.0357.
The figure for `CN(C)CCCOc1nn(Cc2ccccc2)c2ccccc12` is 0.213; for `CC(=O)OCC1=C(C(=O)O)N2C(=O)[C@@H](N)[C@H]2SC1` it is 0.2.
The figure for `N[C@@H](COCc1ccccc1)C(=O)O` is 0.0526; for `CC(=O)Oc1cc(C(C)C)c(OCCN(C)C)cc1C` it is 0.107.
The figure for `CC(=O)[C@H]1CC[C@H]2[C@@H]3CC[C@@H]4C[C@H](O)CC[C@]4(C)[C@H]3CC[C@]12C` is 0.1.
On to `O=C(O)c1cc(O)c2c(c1)[C@H]([C@H]1c3cc(C(=O)O)cc(O)c3C(=O)c3c(O[C@@H]4O[C@H](CO)[C@@H](O)[C@H](O)[C@H]4O)cccc31)c1cccc(O[C@@H]3O[C@H](CO)[C@@H](O)[C@H](O)[C@H]3O)c1C2=O`, for which the “fraction” value came out at 0.269.
The figure for `COc1cc2c(cc1OC)[C@@H]1C(=O)c3ccc4oc(C(C)C)cc4c3O[C@@H]1CO2` is 0.262; for `C[C@@H]1C(=O)O[C@H]2C[C@@]34[C@H]5C[C@@H](C(C)(C)C)[C@]36[C@@H](OC(=O)[C@@H]6O)O[C@@]4(C(=O)O5)[C@]21O` it is 0.105; for `CC(c1cc2ccccc2s1)N(O)C(N)=O` (stereo unspecified) it is 0.217.
Then `NC(=O)c1ncn([C@@H]2O[C@H](CO)[C@@H](O)[C@H]2O)c1N`, with 0.268; and `CC1=CC(=O)CC(C)(C)C1(O)/C=C/C(C)=C\C(=O)O` (mixture of isomers) [ABSCISIC ACID (cis,trans; +/-)], with 0.152; and `OC[C@@H](O)[C@H]1O[C@@H]2O[C@H](C(Cl)(Cl)Cl)O[C@@H]2[C@H]1O`, with 0.222.
The figure for `Nc1ncnc2c1ncn2[C@@H]1O[C@H](COP(=O)(O)O)[C@@H](O)[C@H]1O` is 0.167; for `C[N+]12CCC(CC1)C(OC(=O)C(O)(c1ccccc1)c1ccccc1)C2` (stereo unspecified) it is 0.0968.
For the compound `O=C(O)CCC1NCC2CC1CN1CCCCC21` (stereo unspecified), the “fraction” value amounted to 0.0714.
Then `CCC(=O)O[C@H]1[C@H](O[C@@H]2[C@@H](C)[C@H](O[C@H]3C[C@@](C)(OC)[C@@H](O)[C@H](C)O3)[C@@H](C)C(=O)O[C@H](CC)[C@@](C)(O)[C@H](O)[C@@H](C)C(=O)[C@H](C)C[C@@]2(C)O)O[C@H](C)C[C@@H]1N(C)C`, with 0.17; and `CN(C)CCc1c[nH]c2ccc(C[C@H]3COC(=O)N3)cc12`, with 0.117; and `CN(C)CCC=C1c2ccccc2C=Cc2ccccc21`, with 0.0495.
The figure for `O=C1CCC[C@@H]2[C@H]3C[C@@H](CN12)[C@@H]1CCCCN1C3.[O-][Cl+3]([O-])([O-])O` is 0.114; for `CC(=O)O[C@H]1CC[C@]2(C)[C@H]3CC=C4[C@@H]5CC(C)(C)CC[C@]5(C)CC[C@@]4(C)[C@]3(C)CC[C@H]2C1(C)C` [beta-AMYRIN ACETATE] it is 0.0714.
The figure for `COc1cc(/C=C/C(=O)O)ccc1O` is 0.191.
As to `CNNCc1ccc(C(=O)NC(C)C)cc1`, the “fraction” value was 0.0263.
Then `O=c1[nH]c(=O)n([C@H]2C[C@H](O)[C@@H](CO)O2)cc1F`, with 0; and `C[n+]1cccc(C(=O)[O-])c1`, with 0.0217.
Then `CC(CC(C(N)=O)(c1ccccc1)c1ccccc1)N(C)C` (stereo unspecified), with 0; and `CC1(C)[C@@H](O[C@H]2O[C@H](C(=O)O)[C@@H](O)[C@H](O)[C@H]2O[C@@H]2O[C@H](C(=O)O)[C@@H](O)[C@H](O)[C@H]2O)CC[C@]2(C)[C@H]3C(=O)C=C4[C@@H]5C[C@@](C)(C(=O)O)CC[C@]5(C)CC[C@@]4(C)[C@]3(C)CC[C@@H]12`, with 0.279; and `C[C@]12C=CC(=O)C=C1CC[C@@H]1[C@@H]2C(=O)C[C@@]2(C)[C@H]1CC[C@]2(O)C(=O)CO`, with 0.0217.
The figure for `CCOC(=O)CCC(=O)O[C@H]1[C@H](O[C@@H]2[C@@H](C)[C@H](O[C@H]3C[C@@](C)(OC)[C@@H](O)[C@H](C)O3)[C@@H](C)C(=O)O[C@H](CC)[C@@](C)(O)[C@H](O)[C@@H](C)C(=O)[C@H](C)C[C@@]2(C)O)O[C@H](C)C[C@@H]1N(C)C` is 0.0294.
`CCn1cc(C(=O)O)c(=O)c2cc(F)c(N3CCNC(C)C3)c(F)c21` (stereo unspecified): the “fraction” value was found to be 0.0303.
Regarding `CNC(=C[N+](=O)[O-])NCCSCc1csc(CN(C)C)n1`, the “fraction” value turned out to be 0.265.
The figure for `OCc1ccccc1` is 0.027; for `COC(=O)/C(C)=C\C[C@@]12OC(C)(C)[C@@H]3C[C@@H](C=C4C(=O)c5c(O)c6c(c(CC=C(C)C)c5O[C@]431)O[C@](C)(CCC=C(C)C)C=C6)C2=O` it is 0.
Then `CCn1cc(C(=O)O)c(=O)c2cc(F)c(N3CCN(C)CC3)cc21`, with 0.235; and `COc1cc2c(cc1-c1cc3cc4ccoc4cc3oc1=O)OCO2`, with 0.0449.
Then `Cc1ccc(S(=O)(=O)NCl)cc1`, with 0.1.
For `C[C@@H]1O[C@@H]1P(=O)(O)O`, the “fraction” value worked out at 0.0909.
For the compound `C[C@@H]1CN(c2c(F)c(N)c3c(=O)c(C(=O)O)cn(C4CC4)c3c2F)C[C@H](C)N1`, the “fraction” value amounted to 0.
Then `O=C(N/N=C/c1ccc([N+](=O)[O-])o1)c1ccc(O)cc1`, with 0.229.
The figure for `CC(C)C[C@H](CN)CC(=O)O` is 0.0789; for `NC(=O)c1ncn([C@@H]2O[C@H](CO)[C@@H](O)[C@H]2O)c1O` it is 0.0678; for `CN(C)C(=S)SSC(=S)N(C)C` it is 0.0159.
As to `OCC(Br)(Br)Br`, the “fraction” value amounted to 0.143.

For the origin of these results see the supplement of paper PMC5770031.
